According to patent US20110027352A1, “COMPOUNDS FOR USE IN THE TREATMENT OF NEUROPATHIC PAIN” (priority 2008, published 2011):
Entries after “also recorded” stand apart in the source; their conditions may differ.

Legend:
[1] = test system: mechanical allodynia of the neuropathic (“Cuff”) mice; experiment: Sciatic nerve cuff murine model of neuropathic pain, von Frey filament test in neuropathic (Cuff) mice; type: in vivo, C57BL/6J mice; conditions: for Mechanical allodynia of the right (neuropathic) foot after chronic treatment: injection twice a day
[2] = test system: nociceptive sensitivity of the mice of the control (“Sham”) group; experiment: von Frey filament test in control (Sham) mice operated without cuff; type: in vivo, C57BL/6J mice; conditions: chronic treatment (14-21 days); doses and modes as in examples 2, 7, 9 to 14 and 20 (formoterol 0.5 mg/kg, terbutalin 5 mg/kg)

Question: For COc1ccc(CC(C)NCC(O)c2ccc(O)c(NC=O)c2)cc1 (centres unmarked) [formoterol], which “Mechanical allodynia of the right (neuropathic) foot after chronic treatment” value ([1]; 0.005 mg/kg) is on record?
Answer: completely suppress the mechanical allodynia

Question: What about the “Mechanical allodynia of the right (neuropathic) foot after chronic treatment” value ([1]; 0.05 mg/kg) of the same molecule?
Answer: completely suppress the mechanical allodynia

Question: And the “Allodynia in neuropathic (Cuff) animals after chronic treatment, recapitulation (FIG. 25)” value ([1]; chronic treatment (14-21 days), doses and modes as in examples 7, 9 to 14 and 20 (formoterol 0.5 mg/kg, terbutalin 5 mg/kg))?
Answer: relieve this allodynia; also recorded: causes the neuropathic pain, for example the neuropathic allodynia, to completely disappear

Question: What about the “Effect on neuropathic allodynia acutely after the first injection, summary statement” value ([1]; first injection of the agonist, doses as in examples 7, 9, 11 and 15) of the same molecule?
Answer: not observed acutely after the first injection

Question: What about the “Sensitivity of control (Sham) animals under chronic treatment, recapitulation (FIG. 26)” value [2] of the same molecule?
Answer: do not affect the control animals; also recorded: does not aspecifically affect the sensitivity of the control animals
